US20210139540A1 (priority 2014, published 2021)
Several values for one entry are separate records, joined by “and”; a condition that tells them apart may be missing. Equal values may be shown once.

Assay: general procedure: solution-phase peptide synthesis; N-hydroxysuccinimide active ester (Boc-Gly2-(MCM)Gly-OSu, 9) with Et3N in DMSO
Details: TFA salt, Et3N/Na salts

Substance	step yield (late stage modification step) [%]	further results
(MUT21-Mal-βAla-(Gly2CMGly)5Gly2-NHCH2)3[DE-CO(CH2)4CO-(Gly2CMGly)5Gly2-NHCH2]C (SQTNDKHKRDTYPC; trimeric maleimide-CMG linker lipid construct)		conjugation yield (conjugation step): 84%
(Mal-βAla-(Gly2CMGly)5Gly2-NHCH2)3[DE-CO(CH2)4CO-(Gly2CMGly)5Gly2-NHCH2]C	70	
[CF3COOH.H-(Gly2CMGly)5Gly2-NHCH2]4C, Et3N-salt	98	
[H-(Gly2CMGly)5Gly2-NHCH2]3[DE-CO(CH2)4CO-(Gly2CMGly)5Gly2-NHCH2]C, Na, Et3N-salt		step yield (lipidation step): 25.5%
{Boc-[Gly2(MCMGly)]2Gly2-NHCH2}4C		step yield (coupling step): 71%
{Boc-[Gly2(MCMGly)]3Gly2-NHCH2}4C		step yield (coupling step, run 1): 71% and 94% and 74%
{Boc-[Gly2(MCMGly)]4Gly2-NHCH2}4C		step yield (coupling step): 96%
{Boc-[Gly2(MCMGly)]5Gly2-NHCH2}4C		step yield (coupling step): 95%
{Boc-[Gly2(MCMGly)]Gly2-NHCH2}4C		step yield (coupling step): 68%
{CF3COOH.H-[Gly2 (MCMGly)]4Gly2-NHCH2}4C	96	
{CF3COOH.H-[Gly2(MCMGly)]2Gly2-NHCH2}4C	98	
{CF3COOH.H-[Gly2(MCMGly)]3Gly2-NHCH2}4C	99	
{CF3COOH.H-[Gly2(MCMGly)]5Gly2-NHCH2}4C	99	
{CF3COOH.H-[Gly2(MCMGly)]Gly2-NHCH2}4C	99	
